{"sequences": {"note": "Amino acid sequences for entries named in this document (tags omitted). A change or cut given only in a name is not applied to a line headed by its entry.", "UniProt Q6PHR2": "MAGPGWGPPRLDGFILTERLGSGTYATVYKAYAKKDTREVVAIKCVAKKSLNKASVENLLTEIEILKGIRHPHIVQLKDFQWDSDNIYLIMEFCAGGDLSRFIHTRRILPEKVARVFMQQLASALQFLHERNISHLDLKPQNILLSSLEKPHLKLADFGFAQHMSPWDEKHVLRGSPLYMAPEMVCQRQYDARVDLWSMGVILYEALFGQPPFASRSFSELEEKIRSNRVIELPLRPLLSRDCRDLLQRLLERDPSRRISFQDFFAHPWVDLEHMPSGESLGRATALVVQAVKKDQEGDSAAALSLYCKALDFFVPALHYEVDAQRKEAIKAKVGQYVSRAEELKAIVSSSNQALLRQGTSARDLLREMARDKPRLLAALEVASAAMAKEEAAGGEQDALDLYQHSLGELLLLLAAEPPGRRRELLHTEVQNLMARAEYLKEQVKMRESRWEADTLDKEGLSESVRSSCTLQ", "UniProt Q08345": "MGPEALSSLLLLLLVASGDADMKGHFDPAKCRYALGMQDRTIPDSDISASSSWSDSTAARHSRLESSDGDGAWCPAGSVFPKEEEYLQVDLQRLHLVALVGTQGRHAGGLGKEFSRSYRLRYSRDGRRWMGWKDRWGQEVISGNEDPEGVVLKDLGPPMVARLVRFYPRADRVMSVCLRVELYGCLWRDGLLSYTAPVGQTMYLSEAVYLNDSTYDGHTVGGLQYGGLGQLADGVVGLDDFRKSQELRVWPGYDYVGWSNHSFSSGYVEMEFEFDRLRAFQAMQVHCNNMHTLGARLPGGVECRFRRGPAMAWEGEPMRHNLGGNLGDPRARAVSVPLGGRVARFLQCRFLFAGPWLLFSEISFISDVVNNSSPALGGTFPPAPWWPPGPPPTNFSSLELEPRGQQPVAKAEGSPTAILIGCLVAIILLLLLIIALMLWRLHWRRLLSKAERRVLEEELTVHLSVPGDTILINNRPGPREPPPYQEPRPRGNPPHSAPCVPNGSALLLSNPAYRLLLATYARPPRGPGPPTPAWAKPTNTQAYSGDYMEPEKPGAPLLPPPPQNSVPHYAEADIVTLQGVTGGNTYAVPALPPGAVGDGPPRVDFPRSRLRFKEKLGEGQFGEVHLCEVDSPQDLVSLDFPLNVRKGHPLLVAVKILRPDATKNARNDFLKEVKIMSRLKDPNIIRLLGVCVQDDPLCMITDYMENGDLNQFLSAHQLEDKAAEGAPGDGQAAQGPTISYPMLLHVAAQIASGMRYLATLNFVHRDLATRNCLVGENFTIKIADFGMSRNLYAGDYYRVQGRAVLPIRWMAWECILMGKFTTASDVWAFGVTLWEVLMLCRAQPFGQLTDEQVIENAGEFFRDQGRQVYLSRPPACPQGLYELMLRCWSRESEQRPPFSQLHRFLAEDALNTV", "UniProt Q15131": "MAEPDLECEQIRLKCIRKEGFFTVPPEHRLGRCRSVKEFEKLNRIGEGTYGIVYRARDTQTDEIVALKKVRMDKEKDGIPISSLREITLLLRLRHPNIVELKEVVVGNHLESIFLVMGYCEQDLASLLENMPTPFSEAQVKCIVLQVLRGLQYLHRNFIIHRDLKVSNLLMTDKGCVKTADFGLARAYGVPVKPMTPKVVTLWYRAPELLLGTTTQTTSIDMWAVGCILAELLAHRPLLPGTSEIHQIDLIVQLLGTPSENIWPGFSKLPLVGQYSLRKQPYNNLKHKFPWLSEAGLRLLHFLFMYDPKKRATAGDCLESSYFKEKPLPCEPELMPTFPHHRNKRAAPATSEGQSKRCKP", "UniProt P07947, whole entry, looked up": "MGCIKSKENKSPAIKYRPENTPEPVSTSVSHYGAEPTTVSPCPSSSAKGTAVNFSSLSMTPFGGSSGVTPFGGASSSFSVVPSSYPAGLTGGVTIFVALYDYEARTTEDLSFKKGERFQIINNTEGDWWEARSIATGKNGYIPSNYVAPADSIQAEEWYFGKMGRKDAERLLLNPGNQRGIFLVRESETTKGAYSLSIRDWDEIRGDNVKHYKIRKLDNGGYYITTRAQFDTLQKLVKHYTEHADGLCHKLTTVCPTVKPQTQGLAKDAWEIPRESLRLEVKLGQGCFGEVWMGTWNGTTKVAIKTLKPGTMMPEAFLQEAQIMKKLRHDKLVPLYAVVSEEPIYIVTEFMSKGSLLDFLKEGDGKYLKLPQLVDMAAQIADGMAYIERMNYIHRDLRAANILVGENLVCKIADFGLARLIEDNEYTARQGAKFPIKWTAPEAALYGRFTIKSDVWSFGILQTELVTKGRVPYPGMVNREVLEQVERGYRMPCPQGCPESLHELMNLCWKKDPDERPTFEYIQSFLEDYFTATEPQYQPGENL", "UniProt O15530": "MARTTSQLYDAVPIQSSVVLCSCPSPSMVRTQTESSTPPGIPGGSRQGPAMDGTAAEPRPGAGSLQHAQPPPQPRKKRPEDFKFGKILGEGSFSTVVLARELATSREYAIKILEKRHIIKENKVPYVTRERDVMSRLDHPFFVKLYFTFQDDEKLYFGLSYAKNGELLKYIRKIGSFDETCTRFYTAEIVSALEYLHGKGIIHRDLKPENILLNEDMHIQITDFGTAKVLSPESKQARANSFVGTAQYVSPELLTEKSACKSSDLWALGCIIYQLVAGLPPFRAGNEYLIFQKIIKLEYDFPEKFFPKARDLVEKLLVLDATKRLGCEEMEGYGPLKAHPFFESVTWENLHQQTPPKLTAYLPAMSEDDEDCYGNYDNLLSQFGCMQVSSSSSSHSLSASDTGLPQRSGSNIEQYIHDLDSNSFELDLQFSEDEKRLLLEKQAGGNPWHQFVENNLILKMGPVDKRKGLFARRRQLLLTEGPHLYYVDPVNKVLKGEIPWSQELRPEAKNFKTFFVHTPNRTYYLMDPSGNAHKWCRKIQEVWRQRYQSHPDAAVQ", "UniProt Q9Y6E0": "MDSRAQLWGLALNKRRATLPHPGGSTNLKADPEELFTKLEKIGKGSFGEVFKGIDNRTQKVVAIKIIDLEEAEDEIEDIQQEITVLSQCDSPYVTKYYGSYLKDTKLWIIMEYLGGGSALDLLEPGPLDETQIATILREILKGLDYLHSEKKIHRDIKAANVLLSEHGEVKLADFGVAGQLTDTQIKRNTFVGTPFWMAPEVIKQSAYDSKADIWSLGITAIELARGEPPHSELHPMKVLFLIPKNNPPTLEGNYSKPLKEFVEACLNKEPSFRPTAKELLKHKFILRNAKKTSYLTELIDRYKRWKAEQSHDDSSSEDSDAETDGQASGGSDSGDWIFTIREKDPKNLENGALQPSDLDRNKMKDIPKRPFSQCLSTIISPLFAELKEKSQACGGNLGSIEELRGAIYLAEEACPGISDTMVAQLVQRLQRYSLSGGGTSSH", "UniProt O96013": "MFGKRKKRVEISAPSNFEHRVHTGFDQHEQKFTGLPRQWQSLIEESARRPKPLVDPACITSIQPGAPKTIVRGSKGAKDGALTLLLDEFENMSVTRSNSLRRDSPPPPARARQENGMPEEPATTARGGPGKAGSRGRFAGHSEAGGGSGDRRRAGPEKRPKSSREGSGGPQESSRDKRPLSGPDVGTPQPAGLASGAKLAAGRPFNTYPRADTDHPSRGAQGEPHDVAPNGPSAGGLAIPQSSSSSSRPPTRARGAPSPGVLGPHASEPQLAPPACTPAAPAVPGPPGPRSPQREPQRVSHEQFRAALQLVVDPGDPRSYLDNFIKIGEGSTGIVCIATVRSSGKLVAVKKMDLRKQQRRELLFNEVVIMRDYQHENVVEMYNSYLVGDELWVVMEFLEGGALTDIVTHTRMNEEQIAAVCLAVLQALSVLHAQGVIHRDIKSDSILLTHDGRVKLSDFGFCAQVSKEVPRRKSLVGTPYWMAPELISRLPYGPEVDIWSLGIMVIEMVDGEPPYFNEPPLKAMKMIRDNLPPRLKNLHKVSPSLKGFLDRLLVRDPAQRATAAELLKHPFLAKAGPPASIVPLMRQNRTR", "UniProt Q16620, whole entry, looked up": "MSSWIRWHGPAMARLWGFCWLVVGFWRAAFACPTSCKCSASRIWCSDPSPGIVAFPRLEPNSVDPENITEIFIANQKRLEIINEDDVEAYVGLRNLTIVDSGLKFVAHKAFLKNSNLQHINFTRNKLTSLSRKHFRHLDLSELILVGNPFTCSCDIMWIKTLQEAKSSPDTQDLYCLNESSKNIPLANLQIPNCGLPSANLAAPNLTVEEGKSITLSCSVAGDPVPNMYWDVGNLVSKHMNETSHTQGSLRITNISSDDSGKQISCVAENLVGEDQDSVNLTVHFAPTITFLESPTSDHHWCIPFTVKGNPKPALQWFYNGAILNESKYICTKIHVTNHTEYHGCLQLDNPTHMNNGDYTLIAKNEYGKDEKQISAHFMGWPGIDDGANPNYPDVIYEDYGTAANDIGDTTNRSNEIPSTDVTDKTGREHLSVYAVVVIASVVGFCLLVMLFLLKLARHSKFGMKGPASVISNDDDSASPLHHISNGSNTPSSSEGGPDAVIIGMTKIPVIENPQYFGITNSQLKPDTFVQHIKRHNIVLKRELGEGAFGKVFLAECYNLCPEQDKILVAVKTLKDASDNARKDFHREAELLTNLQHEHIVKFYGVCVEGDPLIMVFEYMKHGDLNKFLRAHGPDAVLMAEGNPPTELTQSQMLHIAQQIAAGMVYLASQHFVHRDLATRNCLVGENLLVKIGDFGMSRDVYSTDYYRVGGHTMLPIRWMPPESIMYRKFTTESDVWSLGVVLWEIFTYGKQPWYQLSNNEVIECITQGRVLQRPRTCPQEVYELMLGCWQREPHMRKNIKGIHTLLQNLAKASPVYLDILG", "UniProt Q00526": "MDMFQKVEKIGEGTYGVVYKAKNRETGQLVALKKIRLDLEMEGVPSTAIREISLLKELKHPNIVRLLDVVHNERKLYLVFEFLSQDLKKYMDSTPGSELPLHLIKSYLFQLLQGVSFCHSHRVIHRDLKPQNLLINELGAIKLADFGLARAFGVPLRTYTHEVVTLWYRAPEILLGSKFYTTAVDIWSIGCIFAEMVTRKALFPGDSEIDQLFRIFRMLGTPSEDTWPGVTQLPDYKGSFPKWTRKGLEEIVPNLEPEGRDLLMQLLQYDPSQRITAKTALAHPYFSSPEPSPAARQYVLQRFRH", "UniProt Q13555": "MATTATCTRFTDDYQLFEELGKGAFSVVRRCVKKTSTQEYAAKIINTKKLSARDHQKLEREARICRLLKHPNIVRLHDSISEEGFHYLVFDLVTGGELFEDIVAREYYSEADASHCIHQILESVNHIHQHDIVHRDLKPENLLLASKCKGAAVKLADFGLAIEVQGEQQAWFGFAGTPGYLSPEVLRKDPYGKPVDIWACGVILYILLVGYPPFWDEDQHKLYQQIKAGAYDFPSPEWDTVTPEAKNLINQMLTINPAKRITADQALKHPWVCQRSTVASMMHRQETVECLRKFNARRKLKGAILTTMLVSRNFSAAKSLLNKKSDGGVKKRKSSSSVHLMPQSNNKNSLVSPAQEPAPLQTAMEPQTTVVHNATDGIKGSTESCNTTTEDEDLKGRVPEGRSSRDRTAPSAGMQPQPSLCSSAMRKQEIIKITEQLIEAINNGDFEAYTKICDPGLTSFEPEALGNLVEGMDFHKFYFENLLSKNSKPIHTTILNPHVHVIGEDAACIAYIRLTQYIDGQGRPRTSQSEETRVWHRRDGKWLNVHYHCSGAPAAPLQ", "UniProt P28482, whole entry": "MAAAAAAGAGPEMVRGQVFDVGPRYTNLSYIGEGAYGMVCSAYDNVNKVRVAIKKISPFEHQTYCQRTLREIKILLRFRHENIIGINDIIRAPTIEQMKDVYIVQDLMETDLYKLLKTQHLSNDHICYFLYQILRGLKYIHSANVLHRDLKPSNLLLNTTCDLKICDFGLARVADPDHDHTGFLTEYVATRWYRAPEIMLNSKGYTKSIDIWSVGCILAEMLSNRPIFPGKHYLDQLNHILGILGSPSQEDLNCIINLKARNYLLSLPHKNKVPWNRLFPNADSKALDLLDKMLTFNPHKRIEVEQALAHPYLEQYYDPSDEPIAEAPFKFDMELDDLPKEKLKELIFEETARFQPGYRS", "UniProt P31749": "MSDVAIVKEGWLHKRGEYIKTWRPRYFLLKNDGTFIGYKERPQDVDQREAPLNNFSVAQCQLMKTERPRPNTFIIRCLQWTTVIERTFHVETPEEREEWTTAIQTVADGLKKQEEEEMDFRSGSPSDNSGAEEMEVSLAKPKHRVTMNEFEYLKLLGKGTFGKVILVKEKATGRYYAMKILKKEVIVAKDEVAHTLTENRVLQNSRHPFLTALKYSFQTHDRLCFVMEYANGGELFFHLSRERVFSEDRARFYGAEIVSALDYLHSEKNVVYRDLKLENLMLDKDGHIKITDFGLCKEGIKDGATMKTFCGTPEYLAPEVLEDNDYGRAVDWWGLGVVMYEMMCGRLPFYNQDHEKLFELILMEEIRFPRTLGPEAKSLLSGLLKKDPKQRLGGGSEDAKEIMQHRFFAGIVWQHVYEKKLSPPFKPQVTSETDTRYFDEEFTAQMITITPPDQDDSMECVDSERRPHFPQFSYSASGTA"}, "source": "the supplement of paper PMC12823440", "about": "“Inhibitors supercharge kinase turnover through native proteolytic circuits” (Nature, 2025)", "note": "The other results are listed elsewhere or left out. Hit calls seldom repeat between salt and free forms of one compound.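 Kinases were expressed as nanoluciferase fusions in K562 cells and luminescence was read every 4 h between 2 and 18 h as percent of control, DMSO set to 100% and a positive control to 0%. A time point counts as decreased when the signal drops significantly (2 sigma). The hit call is the authors' own, does not follow from the count of time points alone, and its rule is not shown.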"}
{"compound": "CNC(=O)c1cc(Oc2ccc(NC(=O)Nc3ccc(Cl)c(C(F)(F)F)c3)cc2)ccn1 [Sorafenib (Tosylate)]", "assay": "number of time points (of 5) at which kinase-Nluc abundance scored as decreased, DMSO-normalised (count); higher = more persistent destabilization", "conditions": "10 µM; K562; 2-18 h"}
{"target": "ULK3 (UniProt Q6PHR2)", "number of time points": 0}
{"target": "DDR1 (UniProt Q08345)", "number of time points": 0}
{"target": "CDK10 (UniProt Q15131)", "number of time points": 0}
{"target": "RIOK1 (UniProt Q9BRS2)", "number of time points": 0}
{"target": "YES1 (UniProt P07947)", "number of time points": 0}
{"target": "DYRK2 (UniProt Q92630)", "number of time points": 0}
{"target": "ARAF (UniProt P10398)", "number of time points": 0}
{"target": "MAP2K2 (UniProt P36507)", "number of time points": 0}
{"target": "CDK2 (UniProt P24941)", "number of time points": 0}
{"target": "PDPK1 (UniProt O15530)", "number of time points": 0}
{"target": "STK24 (UniProt Q9Y6E0)", "number of time points": 0}
{"target": "PAK4 (UniProt O96013)", "number of time points": 0}
{"target": "ZAK (UniProt Q9NYL2)", "number of time points": 0}
{"target": "NTRK2 (UniProt Q16620)", "number of time points": 0}
{"target": "CDK3 (UniProt Q00526)", "number of time points": 0}
{"target": "CAMK2A (UniProt Q9UQM7)", "number of time points": 0}
{"target": "RIPK2 (UniProt O43353)", "number of time points": 0}
{"target": "CAMK2G (UniProt Q13555)", "number of time points": 0}
{"target": "DYRK1B (UniProt Q9Y463)", "number of time points": 0}
{"target": "PRKCA (UniProt P17252)", "number of time points": 0}
{"target": "MAPK1 (UniProt P28482)", "number of time points": 0}
{"target": "MKNK1 (UniProt Q9BUB5)", "number of time points": 0}
{"target": "FGR (UniProt P09769)", "number of time points": 0}
{"target": "RIPK1 (UniProt Q13546)", "number of time points": 0}
{"target": "AKT1 (UniProt P31749)", "number of time points": 0}
{"target": "MAPKAPK2 (UniProt P49137)", "number of time points": 0}
{"target": "PIK4CB (UniProt Q9UBF8)", "number of time points": 0}
{"target": "MAP2K1 (UniProt Q02750)", "number of time points": 0}
